According to publication PMC10304680:
Protein sequences can lack the tags named with them. The exact form of at least one protein or probe is not confirmed. A weaker result is weaker than the reference pair of the same experiment.

Biological target: T1, Smlt2053 (TetR-like regulator, PsrA ortholog) (Stenotrophomonas maltophilia K279a) (UniProt B2FNQ4)
T1 sequence (looked up): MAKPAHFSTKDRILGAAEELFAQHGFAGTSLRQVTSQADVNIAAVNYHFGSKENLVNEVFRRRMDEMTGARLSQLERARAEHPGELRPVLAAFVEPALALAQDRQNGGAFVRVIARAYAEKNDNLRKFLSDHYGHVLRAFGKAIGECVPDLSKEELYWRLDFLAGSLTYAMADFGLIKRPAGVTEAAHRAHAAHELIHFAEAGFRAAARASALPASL
Test: EMSA
Conditions: Tris-glycine (10 mM to 40 mM), 20 mM KCl, 7.5% glycerol, 0.01 mg/mL BSA, 1 mM DTT, 20 ng/uL poly(dI-dC), 50 ng probe in 20 uL, 30 min at 4 C, binding pH not stated, recombinant protein, residues 1-217, letters put together from the description

“GGGATGTCTCCAATGGAATCGGGCCGCTGATGGCCCGAAGGGTAACATGAAAAAAACCCGCGTCGGGACGCGGGCTTAGCCTGATAAACGTAGGCGAATTGTAAAAGATAAAGCGGCGGCATGGTAGTGCCGGCCGCTGGCCGGCATTGGGCGCCATTCAACCTCGGGGCTGCCGGCCAGCGGCCGGCACTACCCCATTCACCCACCTGAGTGAAATCTGACCGGATCGGCCGATTTTGCTGCACTGCAAAATGCCATACGGTACCGTCTGGTCCTAGTATCAAACAATCGTTTGATTAAGGTCCGCCCACC (double strand) [Psmlt2053]”: binds more weakly (13-methyltetradecanoic acid (iso-C15:0), 429 nM protein); binds more weakly (DSF (cis-11-methyl-2-dodecenoic acid) 5-500 uM, 429 nM protein); binds more weakly (lauric acid (C12:0), partial effect at mM, 429 nM protein). “GGGATGTCTCCAATGGAATCGGGCCGCTGATGGCCCGAAGGGTAACATGAAAAAAACCCGCGTCGGGACGCGGGCTTAGCCTGATAAACGTAGGCGAATTGTAAAAGATAAAGCGGCGGCATGGTAGTGCCGGCCGCTGGCCGGCATTGGGCGCCATTCAACCTCGGGGCTGCCGGCCAGCGGCCGGCACTACCCCATTCACCCACCTGAGTGAAATCTGACCGGATCGGCCGATTTTGCTGCACTGCAAAATGCCATACGGTACCGTCTGGTCCTAGTATCAAACAATCGTTTGATTAAGGTCCGCCCACC (double strand) [Psmlt2053]”: binds (no fatty acid, second complex at higher protein); binds more weakly (palmitic acid (C16:0), 429 nM protein); binds (sodium butyrate (C4), no effect, 429 nM protein).
